In PMC5520498:
No constants are given. Whether binding was seen depends on the method and setting. Sequences can lack the tags named with a protein.

Target: T1, GST-MAGE-C2 (UniProt Q9UBF1)
T1 sequence: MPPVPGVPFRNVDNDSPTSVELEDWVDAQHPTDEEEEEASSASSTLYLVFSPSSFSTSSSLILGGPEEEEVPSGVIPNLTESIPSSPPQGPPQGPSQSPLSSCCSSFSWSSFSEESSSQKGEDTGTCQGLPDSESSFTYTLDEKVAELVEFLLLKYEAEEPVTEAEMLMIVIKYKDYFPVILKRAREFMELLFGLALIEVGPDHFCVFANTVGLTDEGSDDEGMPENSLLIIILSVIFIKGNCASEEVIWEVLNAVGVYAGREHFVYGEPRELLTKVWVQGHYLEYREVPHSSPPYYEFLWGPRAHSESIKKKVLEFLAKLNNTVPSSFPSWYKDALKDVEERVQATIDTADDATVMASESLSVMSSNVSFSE
Assay: pull-down; in vitro protein-binding assay with recombinant proteins purified from bacteria: His-FBP1 with GST, GST-TRIM28 or GST-MAGE-C2; western blot; both purified

His-FBP1 (human) (enzyme)
binding: no binding
